Results as given in PMC4920195, “Non-Smc element 5 (Nse5) of the Smc5/6 complex interacts with SUMO pathway components” (Biology Open, 2016).
Residue numbers refer to the chain shown, from its start. Results are given in words; binding and its absence hold for the method and conditions named. A result given as binding can be weak or reduced; the word gives no strength.

Assays:
Assay in all cases: two-hybrid; LexA bait and B42 activating domain prey, galactose-induced; liquid culture, quantitative beta-galactosidase activity of permeabilized cells with reporter pSH18034, wild-type cells (JC470)
[1] = molecular target: T1, Nse5-N183D-LexA (S. cerevisiae) (UniProt Q03718)
T1 sequence: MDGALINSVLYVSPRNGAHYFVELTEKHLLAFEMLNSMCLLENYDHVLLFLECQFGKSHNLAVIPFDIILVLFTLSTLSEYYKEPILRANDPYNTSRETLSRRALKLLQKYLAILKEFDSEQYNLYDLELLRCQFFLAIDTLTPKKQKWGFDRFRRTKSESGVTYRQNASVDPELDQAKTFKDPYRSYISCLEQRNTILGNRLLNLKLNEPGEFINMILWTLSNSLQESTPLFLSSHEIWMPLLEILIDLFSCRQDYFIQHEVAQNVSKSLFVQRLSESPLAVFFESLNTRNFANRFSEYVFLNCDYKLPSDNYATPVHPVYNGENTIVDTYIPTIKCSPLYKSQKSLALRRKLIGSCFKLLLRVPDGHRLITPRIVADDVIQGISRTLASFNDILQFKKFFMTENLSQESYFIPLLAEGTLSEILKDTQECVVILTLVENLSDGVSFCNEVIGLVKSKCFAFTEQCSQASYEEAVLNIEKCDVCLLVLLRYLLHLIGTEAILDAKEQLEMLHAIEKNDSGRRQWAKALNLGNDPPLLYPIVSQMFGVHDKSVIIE

[2] = molecular target: T2, Nse5-L247A-LexA (S. cerevisiae) (UniProt Q03718)
T2 sequence: T1 sequence with D183N, L247A

[3] = molecular target: T3, Nse5-L70A-LexA (S. cerevisiae) (UniProt Q03718)
T3 sequence: T1 sequence with L70A, D183N

[4] = molecular target: T4, Nse5-Y123H-LexA (S. cerevisiae, UniProt Q03718 1-556, Y123H)
T4 construct: Nse5 of Saccharomyces cerevisiae, point mutant; also called J-131; source: yeast two-hybrid fusion, galactose-inducible promoter, in S. cerevisiae
T4 sequence (looked up): T1 sequence with Y123H, D183N

[5] = molecular target: T5, Nse5-H319Y-LexA (S. cerevisiae, UniProt Q03718 1-556, H319Y)
T5 construct: Nse5 of Saccharomyces cerevisiae, point mutant; also called J-120; source: yeast two-hybrid fusion, galactose-inducible promoter, in S. cerevisiae
T5 sequence (looked up): T1 sequence with D183N, H319Y

[6] = molecular target: T6, Nse5-LexA (wild type) (S. cerevisiae, UniProt Q03718 1-556)
T6 construct: Nse5 of Saccharomyces cerevisiae, NSE5 gene cloned into a pEG202-derived bait plasmid; also called Non-Smc element 5; J-038; source: yeast two-hybrid fusion, galactose-inducible promoter, in S. cerevisiae
T6 sequence (looked up): T1 sequence with D183N

[7] = molecular target: T7, Nse5-Y111H-LexA (S. cerevisiae, UniProt Q03718 1-556, Y111H)
T7 construct: Nse5 of Saccharomyces cerevisiae, point mutant; also called J-132; source: yeast two-hybrid fusion, galactose-inducible promoter, in S. cerevisiae
T7 sequence (looked up): T1 sequence with Y111H, D183N

Measured: binding

Nse6-AD (S. cerevisiae)
binds: [1] | [2] | [3] | [4] | [5] | [6] | [7]
